Results taken from PubChem BioAssay AID540276 (National Center for Advancing Translational Sciences (NCATS), 2011).
“And” between values parts separate entries of the source, which are not always exact repeats. Equal entries are not always repeated. The campaign covered roughly 300,000 compounds. About 5,400 (1.8%) were called active. The shares of active, inactive and inconclusive entries below differ from those in the screen. The call rests on the fitted dose curve; tested in HEK293 cells. Potencies beside an inconclusive call are fits to weak or partial responses and may not hold up.

assay: qHTS for inhibitors of binding or entry into cells for Marburg Virus; conditions: Marburg virus pseudotyped entry inhibition, cell reporter; activity change, negative = inhibition: at 37.8 µM (top of the series) unless noted
On the % scale 0 is the no-effect control and ±100 the full control effect; potency means the concentration at half of the fitted maximal effect.

| SMILES | Potency | activity change, negative = inhibition |
| --- | --- | --- |
| CCCS(=O)(=O)Nc1cccc(-c2nc3cccnc3s2)c1 | inconclusive: 35.5 µM [activator, single point] | – |
| O=C(O)CN1C(=O)/C(=C\c2cc(Br)ccc2OCc2ccccc2Cl)SC1=S | – | inactive: -26% [at 46.1 µM] |
| Cc1c(CCC(=O)NCCc2ccc(Cl)cc2)c(=O)oc2c(C)c(O)ccc12 | – | inactive: 7.71% [at 46.1 µM] |
| CCOc1ccccc1NC(=O)c1nc(SC(C)C)ncc1Cl | – | inactive: -19.2% [at 46.1 µM] |
| O=C(Nc1ccc([N+](=O)[O-])cc1)Nc1ccc2c(c1)OCCO2 | inconclusive: 11.2 µM [inhibitor, single point] | – |
| COc1ccc(NC(=O)c2ccc(C)cc2Cl)c([N+](=O)[O-])c1 | inconclusive: 22.4 µM [activator, single point] | – |
| CCOC(=O)c1ccc(N(C(=O)c2ccco2)C(C(=O)NC2CCCCC2)c2ccncc2)cc1 (stereo not given) | inconclusive: 10 µM [inhibitor, partial curve, poor fit] | – |
| Cc1cccc(C)c1OCCCn1c(CCNC(=O)C2CCCCC2)nc2ccccc21 | inactive | – |
| O=C1C2N=NN(CC(=O)N3N=C(c4cccc5ccccc45)CC3c3ccccc3)C2C(=O)N1c1ccccc1 (stereo not given) | inconclusive: 0.259 µM [inhibitor, full curve, poor fit] | – |
| O=C1CSC(c2cccc([N+](=O)[O-])c2)N1c1c(F)cccc1F (stereo not given) | inconclusive: 1.12 µM [inhibitor, single point] | – |
| CCOc1ccc(NS(=O)(=O)c2ccc(C(=O)NC3CCN(Cc4ccccc4)CC3)cc2)cc1 | inconclusive: 35.5 µM [inhibitor, single point] | – |
| CCc1ccc(-n2c(=O)c3c4c(sc3n(CC(=O)N3CCCCC3CC)c2=O)CCC4)cc1 (stereo not given) | inconclusive: 2 µM [activator, partial curve, poor fit] | – |
| NC(=O)CSc1nc2c(sc3ccccc32)c(=O)n1CCCC(=O)NCC1CCCO1 (stereo not given) | – | inactive: -2.79% [at 46.1 µM] |
| NC1=C(Cl)C(=O)c2ccc(S(N)(=O)=O)cc2C1=O | active: 2 µM | – |
| COC(=O)c1ccc(CN2CCC(Oc3ccc(C(=O)N4CCCCC4)cc3)CC2)cc1 | inconclusive: 35.5 µM [inhibitor, partial curve, poor fit] | – |
| c1ccc(-c2nnc(CN3CCCc4ccccc43)o2)cc1 | inconclusive: 7.94 µM [activator, partial curve] | – |
| O=C(Sc1ccccc1)c1cccc(Cn2cc(C(F)(F)F)ccc2=O)c1 | inactive | – |
| C=CCN(c1ccccc1C(=O)O)S(=O)(=O)c1ccc(NC(=O)OC)cc1 | – | inactive: 0.907% [at 46.1 µM] |
| CC(=O)n1cc(/C=N/NC(N)=S)c2ccccc21 | inconclusive: 35.5 µM [inhibitor, single point] | – |
| Cc1cc(C(=O)C(C(c2ccccc2)N2CCOCC2)N2CCOCC2)ccc1Cl (stereo not given) | – | inactive: 7.14% [at 46.1 µM] |
| COc1ccc(C(=O)CCC(=O)Nc2cc(Cl)c(O)c(Cl)c2)cc1 | – | inactive: -17.6% [at 46.1 µM] |
| O=c1cc(N2CCCC2)c(-c2ccccc2)n[nH]1 | inconclusive: 39.8 µM [inhibitor, partial curve, poor fit] | – |
| O=c1cc(CN2CCN(c3ccc(F)cc3)CC2)nc2sccn12 | – | inactive: 17% |

| SMILES | Potency | activity change, negative = inhibition |
| --- | --- | --- |
| O=C(NNCc1ccccc1)c1ccccn1 | inconclusive: 3.98 µM [activator, partial curve, poor fit] | – |
| CCCc1nc2sc3ccccc3c(=O)c2c(=O)n1Cc1ccco1 | – | inactive: 15.3% |
| CC(C)(C)c1ccc(C(=O)NCC(=O)N2CCCC2)cc1 | – | inactive: 21.3% [at 46.1 µM] |
| COc1ccc(CCNC(=O)c2csc3c2CCCC3)cc1OC | inconclusive: 10 µM [inhibitor, partial curve, poor fit] | – |
| CNc1ccccc1C(C)(C)c1cc(-c2cc(C)cc(C)c2)no1 | inconclusive: 35.5 µM [inhibitor, single point] | – |
| O=[N+]([O-])c1cccnc1N1CCC(c2cc(-c3ccc(Cl)cc3)n[nH]2)CC1 | inconclusive: 12.6 µM [inhibitor, partial curve, poor fit] | – |
| CCOc1ccc(Cn2c(SCCCCC#N)nc3c2c(=O)n(C)c(=O)n3C)cc1OCC | inconclusive: 8.91 µM [inhibitor, partial curve, poor fit] | – |
| N#C/C(=C\c1ccc(-c2ccc(Br)cc2)o1)C(=O)NCCc1c[nH]c2ccccc12 | inactive and inconclusive: 13 µM [inhibitor, partial curve, poor fit] | – |
| CN(CC(=O)N1CCCCCC1)S(=O)(=O)c1ccc(F)cc1 | inconclusive: 2.82 µM [activator, partial curve, poor fit] | – |
| CC(C)(C)NC(=O)CN(C(=O)CS(=O)CC(=O)Nc1ccc(F)cc1)c1ccccc1F (stereo not given) | inconclusive: 12.6 µM [inhibitor, single point] | – |
| Cc1ccc2[nH]c(=O)c(CN(C)C(=O)c3cccs3)cc2c1 | inconclusive: 35.5 µM [activator, single point] | – |
| Cn1nc(C(C)(C)C)c([N+](=O)[O-])c1C(=O)Nc1ccccc1 | – | inactive: 5.93% |
| CC1CCc2c(sc3ncnc(NCCCOC(C)C)c23)C1 (stereo not given) | inconclusive: 22.4 µM [inhibitor, single point] | – |
| CC(=O)OC1C(OC(C)=O)N(C(C)=O)C(=O)N1C(C)=O (stereo not given) | – | inactive: 2.72% |
| O=C(COc1ccc2c(c1)OCO2)NC12CC3CC(CC(C3)C1)C2 | – | inactive: 6.31% [at 46.1 µM] |
| Nc1ccc2ccc(O)cc2c1 | inconclusive: 31.6 µM [activator, single point] | – |
| CS(=O)(=O)c1ccc2nc(NC(=O)c3ccc(Cl)cc3)sc2c1 | – | inactive: -2.63% [at 46.1 µM] |
| Cc1cc(C)c2c(CN3CC(C)OC(C)C3)cc(=O)oc2c1C (stereo not given) | inconclusive: 35.5 µM [inhibitor, single point] | – |
| c1ccc(C2=NNC(=NC3CC3)SC2)cc1 | inconclusive: 2.06 µM [inhibitor, full curve, poor fit] | – |
| COc1ccc(C2(CNC(=O)c3ccc(Br)o3)CCOCC2)cc1 | – | inactive: 0.187% |
| Clc1ccc2nc(N3CCCCC3)sc2c1 | inconclusive: 0.316 µM [activator, full curve] | – |
| COc1ccc(/C=C/c2nc(C#N)c(NCc3ccc(F)cc3)o2)cc1OC | inconclusive: 3.55 µM [inhibitor, single point] | – |
